In patent publication US20230383006A1:
These are yes or no findings as the source states them, for the method shown. Some results given as binding are weak or reduced against the parent protein; the word gives no strength.

By UniProt entry, the sequences of proteins in these tests, tags left out. Where a name states a change or a piece, a line headed by the entry shows the natural chain unless it says otherwise.
UniProt P27487: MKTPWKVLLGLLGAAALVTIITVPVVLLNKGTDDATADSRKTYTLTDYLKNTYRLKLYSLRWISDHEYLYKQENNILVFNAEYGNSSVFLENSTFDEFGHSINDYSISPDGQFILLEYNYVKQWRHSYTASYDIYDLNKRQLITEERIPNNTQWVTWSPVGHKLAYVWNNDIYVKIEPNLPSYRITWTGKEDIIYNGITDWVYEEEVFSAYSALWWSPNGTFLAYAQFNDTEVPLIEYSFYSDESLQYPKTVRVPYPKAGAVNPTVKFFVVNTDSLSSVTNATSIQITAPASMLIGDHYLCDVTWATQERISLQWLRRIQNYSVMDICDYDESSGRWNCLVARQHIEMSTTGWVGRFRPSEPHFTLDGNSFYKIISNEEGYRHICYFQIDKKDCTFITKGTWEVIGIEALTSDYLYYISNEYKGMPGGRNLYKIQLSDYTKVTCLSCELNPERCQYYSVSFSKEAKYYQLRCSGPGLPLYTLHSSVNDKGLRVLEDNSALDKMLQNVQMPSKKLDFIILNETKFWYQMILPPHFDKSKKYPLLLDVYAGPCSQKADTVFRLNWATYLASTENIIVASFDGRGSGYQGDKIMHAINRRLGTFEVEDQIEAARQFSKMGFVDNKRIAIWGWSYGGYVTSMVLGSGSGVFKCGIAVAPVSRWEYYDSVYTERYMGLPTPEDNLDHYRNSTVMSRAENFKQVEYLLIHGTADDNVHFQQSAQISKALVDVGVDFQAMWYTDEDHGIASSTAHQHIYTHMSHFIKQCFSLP

Experiments:
[1] = molecular target: human CD26 expressed on human T lymphocytes (human) (UniProt P27487); test: multiparametric flow cytometry on lymphocytes from human peripheral blood, CD3 (FL1-H) against CD26/CDina26 (FL2-H)
[2] = molecular target: T1, SGPGLP; test: CLIPS discontinuous peptide ELISA, average over all discontinuous peptides that contain the sequence
T1 sequence (peptide): SGPGLP

[3] = molecular target: T2, …; test: as above
T2 sequence (peptide): DYLYYISNE

[4] = molecular target: T3, …; test: as above; remark: listed apart in the source
T3 sequence (peptide): TTGWVGRFRPSEPHF

[5] = molecular target: T4, …; test: as above; remark: listed apart in the source
T4 sequence (peptide): DYDESSGRWNCLVAR

[6] = molecular target: T5, …; test: as above; remark: listed apart in the source
T5 sequence (peptide): DVTWATQERISLQWL

[7] = molecular target: T6, …; test: as above; remark: listed apart in the source
T6 sequence (peptide): TFITKGTWEVIG

[8] = molecular target: T7, …; test: as above; remark: listed apart in the source
T7 sequence (peptide): SCELNPERCQYY

[9] = molecular target: human CD26 expressed on human T lymphocytes (human) (UniProt P27487); test: flow cytometry on human lymphocyte subpopulations
[10] = molecular target: Human Antigen (purchased from Sigma CAT #D4943) (human) (UniProt P27487); test: Biacore, CDina26 captured by an immobilized polyclonal anti-mouse Ig antibody, Human Ag injected in solution at two concentrations

Measured: binding

B1: CDina26 (antibody, mouse IgG2b, kappa, V domains shown)
VH: QVQLQQSGAELVKPGASVKLSCKASGYTFRSYDINWVRQRPEQGLEWIGWIFPGDGSTKYNEKFKGKATLTTDKSSSTAYMQLSRLTSEDSAVYFCARWTVVGPGYFDVWGAGTTVTVSS
VL: QIVLTQSPAIMSASPGEKVTITCSASSSVSYMNWFQQKPGTSPKLWIYSTSNLASGVPARFSGSGSGTSYSLTISRMEAEDAATYYCQQRSSYPNTFGGGTKLEIKR
binds: all assays above
